For one compound, logP results are on record in patent US8974823B2, “Solid compositions of low-solubility drugs and poloxamers” (Bend Research, Inc., priority 2003, dated 2015).

Usually logP stands for the decadic logarithm of the partition coefficient of the neutral form, usually between octanol and water. High values mean higher lipophilicity, low ones lower lipophilicity.

This data set is described as follows: physchem.

The compound `COC(=O)C1=C(C)NC(C)=C(C(=O)OC)C1c1ccccc1[N+](=O)[O-]` [nifedipine] gave a logP of roughly 2.4.
